The list does not hold the whole screen: it is rich in T/C values a quarter to a half above the control, in often repeated tests (any T/C) and in doses without a T/C. Further doses and runs are listed elsewhere. T/C: endpoint of the treated group in % of that of the vehicle group. Some doses have a count of surviving animals in place of a T/C: the source holds a T/C of zero for them, seemingly a mark for toxic or unscored doses. Survivors were counted at the toxicity check, usually on the fifth day, unless a day is given; later deaths do not show. Schedules are NCI's codes, read here as Q, the interval in days (D) or hours (H), X, the number of doses. Where survival is the endpoint, this PubChem deposit counts one and a half times the control or more as active, and values a quarter to a half above the control carry no call in these data; other NCI protocols may use other cut-offs. Some T/C values carry the count of animals alive at the toxicity check (mostly the fifth day); without a count, all were alive then. Some entries were tested several times; their values stand side by side, smallest first. Signs of the kind (2×) count equal records among those shown. Some schedule codes hold Z or #, which are not explained here.
Tested on: L1210 leukemia ip in BDF1 mice, survival T/C
Assay: NCI In Vivo Anticancer Drug Screen. Data for tumor model L1210 Leukemia (intraperitoneal) in B6D2F1 (BDF1) mice
Details: T/C endpoint: mean survival time, higher T/C = longer survival
[1] = dose: 20.0 mg/kg/injection, schedule: Q01DX015 (ip), vehicle: clinical formulation
[2] = dose: 44.0 mg/kg/injection, schedule: Q01DX015 (ip), vehicle: clinical formulation

For `Nc1nc2n[nH]nc2c(=O)[nH]1`, the T/C (dose: 6.25 mg/kg/injection, schedule: Q#A X Z (ip), vehicle: water) was 130 % of control, the T/C (dose: 7.5 mg/kg/injection, schedule: Q01DX Z (ip), vehicle: carboxymethylcellulose (CMC)) was 128 % of control and the T/C (dose: 11.18 mg/kg/injection, schedule: Q01DX Z (ip), vehicle: carboxymethylcellulose (CMC)) was 139 [9 of 10 alive] and 142 % of control. For the same compound, the T/C (dose: 12.5 mg/kg/injection, schedule: Q01DX009 (ip), vehicle: carboxymethylcellulose (CMC)) was 138 % of control, the T/C (dose: 12.5 mg/kg/injection, schedule: Q01DX009 (ip), vehicle: saline) was 145 % of control and the T/C (dose: 12.5 mg/kg/injection, schedule: Q01DX010 (ip), vehicle: alkali diluted with saline) was 124, 125, 128, 129, 141, 143 % of control. The T/C (dose: 12.5 mg/kg/injection, schedule: Q01DX Z (ip), vehicle: water) was 133 % of control, the T/C (dose: 12.5 mg/kg/injection, schedule: Q01DX Z (sc), vehicle: water) was 130 % of control and the T/C (dose: 15.0 mg/kg/injection, schedule: Q01DX Z (ip), vehicle: carboxymethylcellulose (CMC)) was 146 % of control. For the same compound, the T/C [1] was 139 % of control, the survivor count [1] was 0 of 6 and the T/C (dose: 20.0 mg/kg/injection, schedule: Q01DX Z (ip), vehicle: other) was 128 % of control. The T/C (dose: 25.0 mg/kg/injection, schedule: Q01DX005 (ip), vehicle: saline with Tween-80) was 121, 123, 125, 126 (2×), 127, 130, 131, 132, 133, 134, 136, 137 (2×), 138, 142 (2×), 147, 148, 150, 151 % of control, the T/C (dose: 25.0 mg/kg/injection, schedule: Q01DX005 (ip), vehicle: saline) was 120, 122, 123 (2×), 125, 126, 128 (6×), 129 (2×), 130 (2×), 131, 132 (2×), 134 (3×), 135 (2×), 137, 138 (2×), 138 [5 of 6 alive], 140 (6×), 141 (4×), 144, 145 (2×), 147, 148, 151, 166, 170 % of control and the T/C (dose: 25.0 mg/kg/injection, schedule: Q01DX009 (ip), vehicle: carboxymethylcellulose (CMC)) was 147 % of control. For the same compound, the T/C (dose: 25.0 mg/kg/injection, schedule: Q01DX009 (ip), vehicle: other, evaluated on day 30) was 130 % of control, the T/C (dose: 25.0 mg/kg/injection, schedule: Q01DX009 (ip), vehicle: other, evaluated on day 40) was 138 and 145 % of control and the T/C (dose: 25.0 mg/kg/injection, schedule: Q01DX009 (ip), vehicle: saline) was 148 % of control [5 of 6 alive]. For the same compound, the T/C (dose: 25.0 mg/kg/injection, schedule: Q01DX010 (ip), vehicle: alkali diluted with saline) was 138, 141, 150, 153 % of control, the T/C (dose: 25.0 mg/kg/injection, schedule: Q01DX Z (im), vehicle: water) was 128 % of control and the T/C (dose: 25.0 mg/kg/injection, schedule: Q01DX Z (ip), vehicle: other) was 125 and 137 % of control. For the same compound, the T/C (dose: 25.0 mg/kg/injection, schedule: Q01DX Z (sc), vehicle: water) was 126 % of control, the T/C (dose: 37.0 mg/kg/injection, schedule: Q03DX Z (ip), vehicle: water) was 127 % of control and the T/C (dose: 37.5 mg/kg/injection, schedule: Q02DX005 (ip), vehicle: carboxymethylcellulose (CMC)) was 144 % of control. For the same compound, the T/C (dose: 39.0 mg/kg/injection, schedule: Q01DX015 (ip), vehicle: water) was 146 % of control, the T/C [2] was 139 % of control and the survivor count [2] was 0 of 6. For the same compound, the T/C (dose: 50.0 mg/kg/injection, schedule: Q01DX005 (ip), vehicle: saline with Tween-80) was 122, 123 (2×), 131 (2×), 131 [5 of 6 alive], 132, 133 (2×), 135, 138, 140, 144, 148 (2×), 149 (2×), 151, 155, 158, 159 % of control, the T/C (dose: 50.0 mg/kg/injection, schedule: Q01DX005 (ip), vehicle: saline) was 109, 122, 128 [5 of 6 alive], 130, 133 (2×), 134, 135 (3×), 136 (3×), 137 (2×), 138 (4×), 139 (2×), 140 (2×), 141 (2×), 142 (3×), 143 (4×), 145 (2×), 146 (3×), 147 (3×), 150, 153 (3×), 155, 161 % of control and the T/C (dose: 50.0 mg/kg/injection, schedule: Q01DX006 (iv), vehicle: water) was 127 % of control.

Reference: PubChem BioAssay AID248 (DTP/NCI, 2004)
